Test results as given in the supplement of paper PMC8728848.
Some of the results follow.

Key:
Test in all cases: glycan array binding signal (z-score within array); higher = stronger binding
Details in all cases: glycan notation: IUPAC condensed, linker removed
[1] = target: Neu5Ac(a2-6)GlcNAc(b1-4)GlcNAc(b1-4)GlcNAc
Outline: (§1)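 Arrays were curated from the Consortium for Functional Glycomics database, 3228 in total, and kept only where the protein sequence was available. Binding is expressed as a within-array Z-score. This score was averaged across arrays of the same protein sequence at different concentrations or buffers and across linkers, and negative values can be read as non-binding.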

[2] = target: Neu5Ac(a2-8)Neu5Ac
Outline: as §1

[3] = target: Neu5Ac(a2-8)Neu5Ac(a2-3)Gal(b1-3)GalNAc(b1-4)[Neu5Ac(a2-3)]Gal(b1-4)Glc
Outline: as §1

[4] = target: Neu5Ac(a2-8)Neu5Ac(a2-3)Gal(b1-3)GalNAc(b1-4)[Neu5Ac(a2-8)Neu5Ac(a2-3)]Gal(b1-4)Glc
Outline: as §1

[5] = target: Neu5Ac(a2-8)Neu5Ac(a2-3)Gal(b1-4)Glc
Outline: as §1

[6] = target: Neu5Ac(a2-8)Neu5Ac(a2-3)Gal(b1-4)GlcNAc
Outline: as §1

[7] = target: Neu5Ac(a2-8)Neu5Ac(a2-3)[Gal(b1-3)GalNAc(b1-4)]Gal(b1-4)Glc
Outline: as §1

[8] = target: Neu5Ac(a2-8)Neu5Ac(a2-3)[GalNAc(b1-4)]Gal(b1-4)Glc
Outline: as §1

[9] = target: Neu5Ac(a2-8)Neu5Ac(a2-8)Neu5Ac
Outline: as §1

[10] = target: Neu5Ac(a2-8)Neu5Ac(a2-8)Neu5Ac(a2-3)Gal(b1-4)Glc
Outline: as §1

[11] = target: Neu5Ac(a2-8)Neu5Ac(a2-8)Neu5Ac(a2-3)[Gal(b1-3)GalNAc(b1-4)]Gal(b1-4)Glc
Outline: as §1

[12] = target: Neu5Ac(a2-8)Neu5Ac(a2-8)Neu5Ac(a2-3)[GalNAc(b1-4)]Gal(b1-4)Glc
Outline: as §1

[13] = target: Neu5Ac(a2-8)Neu5Ac(a2-8)Neu5Ac(a2-8)Neu5Ac(a2-3)[GalNAc(b1-4)]Gal(b1-4)Glc
Outline: as §1

[14] = target: Neu5Ac(a2-8)Neu5Gc(a2-3)Gal(b1-4)GlcNAc
Outline: as §1

[15] = target: Neu5Ac(b2-6)Gal(b1-4)GlcNAc
Outline: as §1

[16] = target: Neu5Ac(b2-6)GalNAc
Outline: as §1

[17] = target: Neu5Ac9Ac(a2-3)Gal(b1-3)GlcNAc
Outline: as §1

[18] = target: Neu5Ac9Ac(a2-3)Gal(b1-4)GlcNAc
Outline: as §1

[19] = target: Neu5Ac9Ac(a2-6)Gal(b1-4)GlcNAc
Outline: as §1

[20] = target: Neu5Gc(a2-3)Gal(b1-3)GlcNAc
Outline: as §1

[21] = target: Neu5Gc(a2-3)Gal(b1-3)[Fuc(a1-4)]GlcNAc
Outline: as §1

[22] = target: Neu5Gc(a2-3)Gal(b1-4)Glc
Outline: as §1

[23] = target: Neu5Gc(a2-3)Gal(b1-4)GlcNAc
Outline: as §1

[24] = target: Neu5Gc(a2-3)Gal(b1-4)GlcNAc(b1-3)Gal(b1-4)GlcNAc(b1-2)Man(a1-3)[Neu5Gc(a2-3)Gal(b1-4)GlcNAc(b1-3)Gal(b1-4)GlcNAc(b1-2)Man(a1-6)]Man(b1-4)GlcNAc(b1-4)GlcNAc
Outline: as §1

[25] = target: Neu5Gc(a2-3)Gal(b1-4)[Fuc(a1-3)]GlcNAc
Outline: as §1

[26] = target: Neu5Gc(a2-6)Gal(b1-4)GlcNAc
Outline: as §1

[27] = target: Neu5Gc(a2-6)GalNAc
Outline: as §1

[28] = target: Neu5Gc(a2-8)Neu5Ac(a2-3)Gal(b1-4)GlcNAc
Outline: as §1

[29] = target: Neu5Gc(a2-8)Neu5Gc(a2-3)Gal(b1-4)GlcNAc
Outline: as §1

[30] = target: Neu5Gc(a2-8)Neu5Gc(a2-3)Gal(b1-4)GlcNAc(b1-3)Gal(b1-4)GlcNAc
Outline: as §1

[31] = target: Neu5Gc(a2-8)Neu5Gc(a2-6)Gal(b1-4)GlcNAc
Outline: as §1

[32] = target: Neu5Gc(b2-6)Gal(b1-4)GlcNAc
Outline: as §1

B1: Clec18A (Homo sapiens) (protein)
chain: PFHTCDLRIDGDCFMVSSEADTYYRARMKCQRKGGVLAQIKRQKVQDILAFYLGRLETTNEVIDSDFETRNFWIGLTYKTAKDSFRWATGEHQAFTSFAFGQPDNHGFGNCVELQASAAFNWNDQRCKTRNRYICQ
[1]
  glycan array binding signal (z-score): -0.879
[2]
  glycan array binding signal (z-score): -0.352
[3]
  glycan array binding signal (z-score): -0.409
[4]
  glycan array binding signal (z-score): 0.126
[5]
  glycan array binding signal (z-score): -0.626
[6]
  glycan array binding signal (z-score): -0.905
[7]
  glycan array binding signal (z-score): -0.26
[8]
  glycan array binding signal (z-score): 4.6
[9]
  glycan array binding signal (z-score): -0.475
[10]
  glycan array binding signal (z-score): -0.813
[11]
  glycan array binding signal (z-score): -0.862
[12]
  glycan array binding signal (z-score): 1.04
[13]
  glycan array binding signal (z-score): 0.826
[14]
  glycan array binding signal (z-score): -0.809
[15]
  glycan array binding signal (z-score): 0.965
[16]
  glycan array binding signal (z-score): 1.46
[17]
  glycan array binding signal (z-score): -0.731
[18]
  glycan array binding signal (z-score): -0.801
[19]
  glycan array binding signal (z-score): -0.564
[20]
  glycan array binding signal (z-score): -0.527
[21]
  glycan array binding signal (z-score): -0.585
[22]
  glycan array binding signal (z-score): -0.558
[23]
  glycan array binding signal (z-score): -0.834
[24]
  glycan array binding signal (z-score): 0.411
[25]
  glycan array binding signal (z-score): -0.017
[26]
  glycan array binding signal (z-score): -0.733
[27]
  glycan array binding signal (z-score): -0.513
[28]
  glycan array binding signal (z-score): -0.782
[29]
  glycan array binding signal (z-score): -0.809
[30]
  glycan array binding signal (z-score): -0.762
[31]
  glycan array binding signal (z-score): -0.754
[32]
  glycan array binding signal (z-score): 1.59
